From US20230302032A1, “ANTIBACTERIAL COMPOSITIONS AND METHODS FOR FABRICATING THEREOF” (Harrow IP LLC, priority 2020, published 2023)

Test: HPLC potency and stability of stored antibiotic solutions;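 further: stored antibiotic compositions assayed by HPLC for remaining potency, USP acceptance requires at least 90% of nominal concentration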
Settings: composition of Example 2 (with L-glycine)

## CCN(CC)CC(=O)Nc1c(C)cccc1C [Lidocaine, 2-diethylamino-N-(2,6-dimethylphenyl)acetamide]
Day 0
  Stability of the composition (assay %): 100%
Day 30
  Stability of the composition (assay %): 102.2%
Day 60
  Stability of the composition (assay %): 96.1%
Day 90
  Stability of the composition (assay %): 100.6%
Day 180
  Stability of the composition (assay %): 102.7%
